Some of the results follow.

Protein sequences, listed by entry. Tags and fused reporters are not part of them. Lines headed by an entry give the natural chain unless they say otherwise; changes in a name come on top.
UniProt Q8NEY8: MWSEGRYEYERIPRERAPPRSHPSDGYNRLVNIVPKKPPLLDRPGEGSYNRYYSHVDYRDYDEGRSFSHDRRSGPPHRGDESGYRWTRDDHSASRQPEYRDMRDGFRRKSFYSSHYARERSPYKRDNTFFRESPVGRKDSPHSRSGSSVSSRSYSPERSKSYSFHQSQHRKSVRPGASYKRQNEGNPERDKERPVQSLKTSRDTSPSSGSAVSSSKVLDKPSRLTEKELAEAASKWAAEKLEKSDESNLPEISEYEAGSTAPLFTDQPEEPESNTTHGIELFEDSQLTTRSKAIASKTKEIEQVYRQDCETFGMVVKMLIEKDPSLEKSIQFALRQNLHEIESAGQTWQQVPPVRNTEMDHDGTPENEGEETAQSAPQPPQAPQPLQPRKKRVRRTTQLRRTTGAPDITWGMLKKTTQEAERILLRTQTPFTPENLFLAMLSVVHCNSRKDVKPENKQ
UniProt Q9UKY4: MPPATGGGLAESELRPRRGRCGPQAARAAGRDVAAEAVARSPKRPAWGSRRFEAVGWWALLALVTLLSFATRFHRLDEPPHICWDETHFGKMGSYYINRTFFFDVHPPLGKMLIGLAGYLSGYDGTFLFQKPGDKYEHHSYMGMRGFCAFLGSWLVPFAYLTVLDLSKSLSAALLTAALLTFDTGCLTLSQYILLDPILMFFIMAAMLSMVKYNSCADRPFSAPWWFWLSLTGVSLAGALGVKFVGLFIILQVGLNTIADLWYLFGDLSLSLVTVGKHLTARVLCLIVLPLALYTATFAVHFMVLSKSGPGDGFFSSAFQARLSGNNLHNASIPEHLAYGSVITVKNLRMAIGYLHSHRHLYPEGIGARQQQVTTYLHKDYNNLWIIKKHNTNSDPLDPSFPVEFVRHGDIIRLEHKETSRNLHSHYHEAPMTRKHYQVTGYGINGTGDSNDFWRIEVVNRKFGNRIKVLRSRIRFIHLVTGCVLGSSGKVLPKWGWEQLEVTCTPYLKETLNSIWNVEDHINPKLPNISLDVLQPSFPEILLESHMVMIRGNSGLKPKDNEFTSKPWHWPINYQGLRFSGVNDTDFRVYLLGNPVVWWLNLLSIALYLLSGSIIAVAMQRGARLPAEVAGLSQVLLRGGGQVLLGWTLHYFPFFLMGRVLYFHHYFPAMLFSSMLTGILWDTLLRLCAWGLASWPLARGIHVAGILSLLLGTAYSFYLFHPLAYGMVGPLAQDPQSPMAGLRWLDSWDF
UniProt Q8IY17: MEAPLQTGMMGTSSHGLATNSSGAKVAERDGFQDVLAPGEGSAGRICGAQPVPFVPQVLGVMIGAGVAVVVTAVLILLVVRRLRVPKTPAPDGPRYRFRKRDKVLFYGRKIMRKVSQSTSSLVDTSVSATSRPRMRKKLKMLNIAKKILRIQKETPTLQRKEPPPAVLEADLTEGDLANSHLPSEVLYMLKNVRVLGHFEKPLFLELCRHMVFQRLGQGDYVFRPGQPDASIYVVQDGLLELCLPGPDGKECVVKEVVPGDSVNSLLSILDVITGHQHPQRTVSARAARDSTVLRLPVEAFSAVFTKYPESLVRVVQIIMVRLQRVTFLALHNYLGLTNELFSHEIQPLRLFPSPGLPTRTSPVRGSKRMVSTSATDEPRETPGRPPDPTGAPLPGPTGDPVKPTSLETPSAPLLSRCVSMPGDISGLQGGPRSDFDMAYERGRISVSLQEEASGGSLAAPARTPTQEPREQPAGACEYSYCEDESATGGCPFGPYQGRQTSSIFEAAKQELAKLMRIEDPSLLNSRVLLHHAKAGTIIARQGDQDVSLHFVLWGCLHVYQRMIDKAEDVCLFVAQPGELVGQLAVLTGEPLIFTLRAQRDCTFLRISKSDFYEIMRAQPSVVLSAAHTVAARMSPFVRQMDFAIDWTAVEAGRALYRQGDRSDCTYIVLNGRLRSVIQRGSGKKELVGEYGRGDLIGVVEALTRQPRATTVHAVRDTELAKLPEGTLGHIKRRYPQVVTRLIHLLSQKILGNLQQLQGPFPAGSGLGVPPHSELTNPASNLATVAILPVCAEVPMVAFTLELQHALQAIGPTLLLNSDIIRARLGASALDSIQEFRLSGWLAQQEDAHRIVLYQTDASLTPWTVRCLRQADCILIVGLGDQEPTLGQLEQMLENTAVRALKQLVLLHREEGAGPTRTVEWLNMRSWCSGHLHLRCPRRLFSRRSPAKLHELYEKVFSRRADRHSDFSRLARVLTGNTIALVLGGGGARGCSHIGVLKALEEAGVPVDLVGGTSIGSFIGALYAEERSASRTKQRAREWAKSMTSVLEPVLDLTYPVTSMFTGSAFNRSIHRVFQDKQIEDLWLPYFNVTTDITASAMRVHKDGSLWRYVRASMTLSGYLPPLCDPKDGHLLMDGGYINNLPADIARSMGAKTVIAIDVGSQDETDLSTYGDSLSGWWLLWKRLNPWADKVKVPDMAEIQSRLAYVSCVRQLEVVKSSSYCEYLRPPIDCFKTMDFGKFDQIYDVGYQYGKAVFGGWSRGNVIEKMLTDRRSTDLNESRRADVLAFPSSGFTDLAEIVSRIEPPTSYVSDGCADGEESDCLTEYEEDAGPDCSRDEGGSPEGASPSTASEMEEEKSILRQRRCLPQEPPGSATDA
UniProt P62937, whole entry, looked up: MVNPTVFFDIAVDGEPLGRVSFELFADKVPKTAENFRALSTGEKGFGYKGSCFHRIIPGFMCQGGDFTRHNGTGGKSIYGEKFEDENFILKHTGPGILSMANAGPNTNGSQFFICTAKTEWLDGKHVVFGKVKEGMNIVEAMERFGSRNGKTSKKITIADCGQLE
UniProt Q9Y4D7: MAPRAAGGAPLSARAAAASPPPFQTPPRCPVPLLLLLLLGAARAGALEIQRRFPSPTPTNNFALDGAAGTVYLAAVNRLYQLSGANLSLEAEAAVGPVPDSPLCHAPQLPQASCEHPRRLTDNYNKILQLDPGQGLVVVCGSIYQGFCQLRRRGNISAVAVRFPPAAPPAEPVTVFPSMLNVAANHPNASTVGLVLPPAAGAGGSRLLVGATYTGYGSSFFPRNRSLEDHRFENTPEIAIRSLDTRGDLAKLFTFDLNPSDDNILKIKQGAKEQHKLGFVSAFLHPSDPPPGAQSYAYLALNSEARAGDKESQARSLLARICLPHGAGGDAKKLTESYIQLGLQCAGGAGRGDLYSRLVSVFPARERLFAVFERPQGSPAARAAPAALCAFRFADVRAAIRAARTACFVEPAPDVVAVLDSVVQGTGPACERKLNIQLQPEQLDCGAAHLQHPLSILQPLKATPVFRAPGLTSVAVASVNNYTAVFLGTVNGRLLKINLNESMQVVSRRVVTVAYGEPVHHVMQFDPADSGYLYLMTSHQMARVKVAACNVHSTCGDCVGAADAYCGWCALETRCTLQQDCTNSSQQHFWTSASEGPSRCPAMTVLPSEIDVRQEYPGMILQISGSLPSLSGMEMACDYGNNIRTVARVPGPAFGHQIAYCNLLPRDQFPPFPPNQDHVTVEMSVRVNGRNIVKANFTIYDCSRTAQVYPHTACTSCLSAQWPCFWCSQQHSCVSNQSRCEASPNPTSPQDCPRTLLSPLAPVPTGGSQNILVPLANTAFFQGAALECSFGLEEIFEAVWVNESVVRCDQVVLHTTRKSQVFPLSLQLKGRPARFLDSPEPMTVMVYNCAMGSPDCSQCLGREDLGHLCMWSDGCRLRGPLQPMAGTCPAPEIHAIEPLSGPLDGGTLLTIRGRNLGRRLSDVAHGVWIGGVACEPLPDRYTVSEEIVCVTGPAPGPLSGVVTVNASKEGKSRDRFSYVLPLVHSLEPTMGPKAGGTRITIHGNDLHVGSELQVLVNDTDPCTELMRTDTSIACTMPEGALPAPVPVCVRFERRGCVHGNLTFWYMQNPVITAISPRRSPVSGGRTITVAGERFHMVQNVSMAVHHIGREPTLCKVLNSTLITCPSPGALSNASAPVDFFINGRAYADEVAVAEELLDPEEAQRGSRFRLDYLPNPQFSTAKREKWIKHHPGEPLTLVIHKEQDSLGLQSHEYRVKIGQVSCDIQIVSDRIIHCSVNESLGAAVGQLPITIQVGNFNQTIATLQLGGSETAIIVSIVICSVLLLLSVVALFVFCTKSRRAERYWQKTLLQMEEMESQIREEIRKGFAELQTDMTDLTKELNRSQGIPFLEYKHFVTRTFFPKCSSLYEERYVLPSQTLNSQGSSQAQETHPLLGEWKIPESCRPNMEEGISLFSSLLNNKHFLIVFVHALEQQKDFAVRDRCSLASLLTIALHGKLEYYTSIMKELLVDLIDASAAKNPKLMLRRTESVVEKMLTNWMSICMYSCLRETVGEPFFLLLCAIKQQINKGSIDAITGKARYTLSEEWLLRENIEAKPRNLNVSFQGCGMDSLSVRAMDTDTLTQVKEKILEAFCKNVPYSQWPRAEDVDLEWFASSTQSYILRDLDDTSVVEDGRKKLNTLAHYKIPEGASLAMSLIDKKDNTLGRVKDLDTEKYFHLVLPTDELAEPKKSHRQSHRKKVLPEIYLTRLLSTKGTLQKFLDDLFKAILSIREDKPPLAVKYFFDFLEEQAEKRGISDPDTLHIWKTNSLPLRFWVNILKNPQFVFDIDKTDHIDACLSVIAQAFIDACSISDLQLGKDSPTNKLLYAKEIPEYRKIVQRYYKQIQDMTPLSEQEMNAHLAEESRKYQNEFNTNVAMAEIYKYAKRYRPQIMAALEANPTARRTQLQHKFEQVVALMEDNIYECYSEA
UniProt O00469: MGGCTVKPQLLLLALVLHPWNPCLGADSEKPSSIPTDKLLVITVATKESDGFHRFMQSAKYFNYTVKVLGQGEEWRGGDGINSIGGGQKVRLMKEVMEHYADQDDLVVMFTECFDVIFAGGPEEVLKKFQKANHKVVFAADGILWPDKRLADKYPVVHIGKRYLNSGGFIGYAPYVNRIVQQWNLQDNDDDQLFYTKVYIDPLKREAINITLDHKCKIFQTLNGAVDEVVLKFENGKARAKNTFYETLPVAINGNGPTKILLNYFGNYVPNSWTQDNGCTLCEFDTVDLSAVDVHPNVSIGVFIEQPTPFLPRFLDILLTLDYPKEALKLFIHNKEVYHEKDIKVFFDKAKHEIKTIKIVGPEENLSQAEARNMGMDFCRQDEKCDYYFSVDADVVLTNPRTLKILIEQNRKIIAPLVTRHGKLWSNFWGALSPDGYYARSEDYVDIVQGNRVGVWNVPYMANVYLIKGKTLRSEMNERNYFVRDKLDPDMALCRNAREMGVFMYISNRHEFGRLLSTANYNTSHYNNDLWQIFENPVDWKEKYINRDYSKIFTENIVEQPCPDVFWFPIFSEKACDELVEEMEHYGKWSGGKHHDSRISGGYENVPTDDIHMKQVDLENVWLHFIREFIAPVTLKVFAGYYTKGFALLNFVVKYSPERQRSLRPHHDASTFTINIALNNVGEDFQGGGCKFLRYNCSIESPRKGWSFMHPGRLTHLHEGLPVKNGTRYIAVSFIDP
UniProt Q8TD55: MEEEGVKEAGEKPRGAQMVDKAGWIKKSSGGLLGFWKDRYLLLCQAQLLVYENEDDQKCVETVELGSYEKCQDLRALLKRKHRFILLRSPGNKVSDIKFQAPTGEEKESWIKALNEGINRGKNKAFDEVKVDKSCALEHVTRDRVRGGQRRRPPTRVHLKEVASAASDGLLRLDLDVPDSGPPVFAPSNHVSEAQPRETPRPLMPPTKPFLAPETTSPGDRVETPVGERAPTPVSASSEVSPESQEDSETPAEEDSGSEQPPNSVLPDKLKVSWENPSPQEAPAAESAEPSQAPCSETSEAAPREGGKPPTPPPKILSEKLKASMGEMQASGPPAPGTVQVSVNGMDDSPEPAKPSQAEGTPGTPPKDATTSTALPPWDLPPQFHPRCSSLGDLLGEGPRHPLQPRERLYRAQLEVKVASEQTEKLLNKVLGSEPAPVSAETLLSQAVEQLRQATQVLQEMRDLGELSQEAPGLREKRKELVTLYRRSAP
UniProt Q8WVV4: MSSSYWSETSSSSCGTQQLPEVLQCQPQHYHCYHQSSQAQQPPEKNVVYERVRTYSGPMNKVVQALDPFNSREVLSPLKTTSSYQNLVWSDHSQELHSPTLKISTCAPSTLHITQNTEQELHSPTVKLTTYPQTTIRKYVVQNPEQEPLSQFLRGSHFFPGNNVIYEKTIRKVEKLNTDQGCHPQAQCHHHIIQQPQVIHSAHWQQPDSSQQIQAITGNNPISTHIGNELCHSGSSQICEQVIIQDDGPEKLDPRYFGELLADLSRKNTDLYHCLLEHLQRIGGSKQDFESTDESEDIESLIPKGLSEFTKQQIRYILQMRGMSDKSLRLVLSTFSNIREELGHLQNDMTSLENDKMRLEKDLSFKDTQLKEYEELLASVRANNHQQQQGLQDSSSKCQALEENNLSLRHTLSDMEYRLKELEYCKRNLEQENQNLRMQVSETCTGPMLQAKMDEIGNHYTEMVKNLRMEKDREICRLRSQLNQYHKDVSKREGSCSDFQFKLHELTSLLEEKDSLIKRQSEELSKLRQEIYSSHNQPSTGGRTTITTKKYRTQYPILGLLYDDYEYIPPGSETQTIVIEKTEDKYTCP
UniProt Q9HCU8: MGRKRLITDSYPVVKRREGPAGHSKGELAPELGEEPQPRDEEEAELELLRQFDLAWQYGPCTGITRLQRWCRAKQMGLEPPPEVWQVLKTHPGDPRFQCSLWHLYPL

Compound in one experiment: c1cc(OCCN2CCCCC2)cc(-c2n[nH]c3ccc(-c4nnc[nH]4)cc23)c1
The experiment can be described thus: log2 fold change, soluble protein after heating vs DMSO (PISA); higher = thermal stabilisation; K562 cells, 10 uM, 30 min; active = over 0.2 and 3.5 SD of the protein, either way, in both replicates (recomputed). In a few lines:
(§1)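 K562 cells at 2×10^6 cells/mL were treated for 30 min with 10 μM compound, and aliquots were heated for 3 min over 48°C-58°C before pooling. Extraction used PBS with 0.5% NP-40 at 4°C, and soluble protein was the supernatant after 21,000xg for 90 min, measured by TMTpro 16plex LC-MS/MS with channel sums equalised. Thermal stability values, relative to control samples and from duplicates, are log2 fold changes.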
Turning to PPHLN1 (UniProt Q8NEY8), the log2 fold change was inactive: 0.019.

As for POMT2 (UniProt Q9UKY4), the log2 fold change was inactive: -0.12.

Turning to PNPLA6 (UniProt Q8IY17), the log2 fold change is inactive: -0.073.

With PPIA isoform 2 (UniProt P62937), the log2 fold change is inactive: -0.068.

In the case of POLB (UniProt P06746), the log2 fold change is inactive: -0.026.

POC1A (UniProt Q8NBT0): the log2 fold change is inactive: -0.607.

In the case of PLXND1 (UniProt Q9Y4D7), the log2 fold change is inactive: -0.296.

As for PLOD2 isoform 2 (UniProt O00469), the log2 fold change is inactive: -0.01.

With PLEKHO2 (UniProt Q8TD55), the log2 fold change was inactive: -0.348.

Turning to POF1B isoform 1 (UniProt Q8WVV4), the log2 fold change is inactive: 0.838.

As to POLD4 (UniProt Q9HCU8), the log2 fold change was inactive: 0.03.

POLR2E (UniProt P19388): the log2 fold change is inactive: -0.088.

For POLR2J (UniProt P52435), the log2 fold change was inactive: 0.013.

Compound in the next experiment: c1cn2cc(-c3ccc4cn[nH]c4c3)nc(Nc3ccc(N4CCOCC4)cc3)c2n1 [entospletinib]
Described as above. In a few lines:
as §1
On to PPHLN1 (UniProt Q8NEY8), for which the log2 fold change is inactive: -0.004.

As to POMT2 (UniProt Q9UKY4), the log2 fold change was inactive: 0.014.

Turning to PNPLA6 (UniProt Q8IY17), the log2 fold change is inactive: 0.072.

With PPIA isoform 2 (UniProt P62937), the log2 fold change is inactive: -0.266.

Take POC1A (UniProt Q8NBT0): the log2 fold change is inactive: 0.031.

Turning to PLXND1 (UniProt Q9Y4D7), the log2 fold change was inactive: -0.089.

Regarding PLOD2 isoform 2 (UniProt O00469), the log2 fold change was inactive: 0.018.

With PLEKHO2 (UniProt Q8TD55), the log2 fold change was inactive: -0.015.

POF1B isoform 1 (UniProt Q8WVV4): the log2 fold change is inactive: -0.335.

With POLD4 (UniProt Q9HCU8), the log2 fold change was inactive: -0.003.

For the target POLR2J (UniProt P52435), the log2 fold change is inactive: 0.074.
